PubChem BioAssay AID1224827 – NIAID, 2016
In all, the deposit lists about 3,800 reagents; below is a part drawn at random. In the full data, about 2,200 (57%) were called active. 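Active means a strong reporter change in either direction; calls are per siRNA, not per gene; qiagen siRNAs gave weaker effects.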 A number with no mark means an inactive call. The numbers tell different reagents against one gene apart. Not all columns of the deposit are shown. No sequences are given here.

Screen: 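Retest primary hits on a TNF reporter with six siRNAs per gene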 (follow-up of hits)
System: RAW264.7 G9 mouse macrophage reporter clone
Knock-down reagent: single siRNA against mouse genes, 100 nM siRNA
Timing: siRNA for 2 days, then LPS about 16 h
Challenge: bacterial lipopolysaccharide (LPS), 10 ng/ml, cells fixed after overnight (about 16 h) stimulation
Measured: 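Imaged nuclear TNF reporter intensity, background removed, scaled per plate and to non-targeting control wells, as z-scores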
Scale: TNF reporter z-score, mean and TNF reporter z-score: higher = stronger Tnf promoter reporter signal; gene median z, three same-vendor siRNAs: higher = stronger Tnf reporter signal for the gene
Rule for the call: 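An siRNA is called active when its mean z-score over replicates is at least +2 or at most -2; control wells get no call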

gene | siRNA no. | TNF reporter z-score, mean | gene median z, three same-vendor siRNAs | TNF reporter z-score, repeat 1
Magi1 (GeneID 14924) | 1 | -2.52 (active) | -4.04 | -2.23
Magi1 (GeneID 14924) | 2 | -4.04 (active) | -4.04 | -4.2
Magi1 (GeneID 14924) | 3 | -4.68 (active) | -4.04 | -4.74
Magi1 (GeneID 14924) | 4 | 1.81 | 0.23 | 3.06
Magi1 (GeneID 14924) | 5 | 0.375 | 0.23 | 0.849
Magi1 (GeneID 14924) | 6 | -0.879 | 0.23 | -0.212
Cacna2d1 (GeneID 12293) | 1 | -0.752 | -2.85 | -1.46
Cacna2d1 (GeneID 12293) | 2 | -3.42 (active) | -2.85 | -1.58
Cacna2d1 (GeneID 12293) | 3 | -4.68 (active) | -2.85 | -5.26
Cacna2d1 (GeneID 12293) | 4 | 4.13 (active) | 1.65 | 6.85
Cacna2d1 (GeneID 12293) | 5 | 2.65 (active) | 1.65 | 5.02
Cacna2d1 (GeneID 12293) | 6 | 0.634 | 1.65 | 1.88
Serpine2 (GeneID 20720) | 1 | 0.0809 | -3.59 | 0.132
Serpine2 (GeneID 20720) | 2 | -3.59 (active) | -3.59 | -3.88
Serpine2 (GeneID 20720) | 3 | -5.33 (active) | -3.59 | -4.95
Serpine2 (GeneID 20720) | 4 | 1.32 | -0.646 | 2.91
Serpine2 (GeneID 20720) | 5 | -0.455 | -0.646 | 0.298
Serpine2 (GeneID 20720) | 6 | -2.44 (active) | -0.646 | -3.84
Itga10 (GeneID 213119) | 1 | 9.77 (active) | 0.0535 | 16.7
Itga10 (GeneID 213119) | 2 | 0.0535 | 0.0535 | 0.021
Itga10 (GeneID 213119) | 3 | -1.75 | 0.0535 | -1.79
Gm15850 (GeneID 329253) | 1 | 4.28 (active) | -1.49 | 4.61
Gm15850 (GeneID 329253) | 2 | -1.49 | -1.49 | -1.54
Gm15850 (GeneID 329253) | 3 | -4.99 (active) | -1.49 | -5.13
Adcy9 (GeneID 11515) | 1 | 2.24 (active) | 0.756 | 2.56
Adcy9 (GeneID 11515) | 2 | 0.756 | 0.756 | 1.23
Adcy9 (GeneID 11515) | 3 | -1.74 | 0.756 | -2.33
Adcy9 (GeneID 11515) | 4 | -0.201 | -0.604 | 0.143
Adcy9 (GeneID 11515) | 5 | -1.07 | -0.604 | -0.663
Adcy9 (GeneID 11515) | 6 | -1 | -0.604 | -0.295
Zfp57 (GeneID 22715) | 1 | 1.7 | -0.483 | 1.26
Zfp57 (GeneID 22715) | 2 | -0.548 | -0.483 | -1.35
Zfp57 (GeneID 22715) | 3 | -1.58 | -0.483 | -1.95
Zfp57 (GeneID 22715) | 4 | 0.555 | -1.66 | 1.66
Zfp57 (GeneID 22715) | 5 | -1.66 | -1.66 | -2.12
Zfp57 (GeneID 22715) | 6 | -3.39 (active) | -1.66 | -3.84
S1pr2 (GeneID 14739) | 1 | 0.583 | -3.74 | -0.29
S1pr2 (GeneID 14739) | 2 | -3.74 (active) | -3.74 | -3.49
S1pr2 (GeneID 14739) | 3 | -4.6 (active) | -3.74 | -4.59
S1pr2 (GeneID 14739) | 4 | 2.42 (active) | 0.0668 | 4.75
S1pr2 (GeneID 14739) | 5 | 0.772 | 0.0668 | 1.49
S1pr2 (GeneID 14739) | 6 | -1.94 | 0.0668 | -1.24
